Further values from the same series stand in other lists.
Target: RNA polymerase II (Mus musculus) (UniProt P08775+Q8CFI7+P97760+A0A3Q4L2S8+Q80UW8+P61219+P62488+Q923G2+P60898+O08740+Q63871+P62876)
Assay: Inhibition of RNA polymerase II in mouse B16-F1 migrating cells assessed as fold change in Med29-RNA stability at 0.1 mM measured by ChIP-seq analysis relative to control cells
Assay type: cell-based

Q: Which log2FC does the source give for `OC[C@H]1O[C@@H](n2cnc3cc(Cl)c(Cl)cc32)[C@H](O)[C@@H]1O` here?
A: 0.45
